1 substance from publication PMC2946563 can be followed below.

Amino acid sequences for entries named in this document (tags omitted).
UniProt Q70E73: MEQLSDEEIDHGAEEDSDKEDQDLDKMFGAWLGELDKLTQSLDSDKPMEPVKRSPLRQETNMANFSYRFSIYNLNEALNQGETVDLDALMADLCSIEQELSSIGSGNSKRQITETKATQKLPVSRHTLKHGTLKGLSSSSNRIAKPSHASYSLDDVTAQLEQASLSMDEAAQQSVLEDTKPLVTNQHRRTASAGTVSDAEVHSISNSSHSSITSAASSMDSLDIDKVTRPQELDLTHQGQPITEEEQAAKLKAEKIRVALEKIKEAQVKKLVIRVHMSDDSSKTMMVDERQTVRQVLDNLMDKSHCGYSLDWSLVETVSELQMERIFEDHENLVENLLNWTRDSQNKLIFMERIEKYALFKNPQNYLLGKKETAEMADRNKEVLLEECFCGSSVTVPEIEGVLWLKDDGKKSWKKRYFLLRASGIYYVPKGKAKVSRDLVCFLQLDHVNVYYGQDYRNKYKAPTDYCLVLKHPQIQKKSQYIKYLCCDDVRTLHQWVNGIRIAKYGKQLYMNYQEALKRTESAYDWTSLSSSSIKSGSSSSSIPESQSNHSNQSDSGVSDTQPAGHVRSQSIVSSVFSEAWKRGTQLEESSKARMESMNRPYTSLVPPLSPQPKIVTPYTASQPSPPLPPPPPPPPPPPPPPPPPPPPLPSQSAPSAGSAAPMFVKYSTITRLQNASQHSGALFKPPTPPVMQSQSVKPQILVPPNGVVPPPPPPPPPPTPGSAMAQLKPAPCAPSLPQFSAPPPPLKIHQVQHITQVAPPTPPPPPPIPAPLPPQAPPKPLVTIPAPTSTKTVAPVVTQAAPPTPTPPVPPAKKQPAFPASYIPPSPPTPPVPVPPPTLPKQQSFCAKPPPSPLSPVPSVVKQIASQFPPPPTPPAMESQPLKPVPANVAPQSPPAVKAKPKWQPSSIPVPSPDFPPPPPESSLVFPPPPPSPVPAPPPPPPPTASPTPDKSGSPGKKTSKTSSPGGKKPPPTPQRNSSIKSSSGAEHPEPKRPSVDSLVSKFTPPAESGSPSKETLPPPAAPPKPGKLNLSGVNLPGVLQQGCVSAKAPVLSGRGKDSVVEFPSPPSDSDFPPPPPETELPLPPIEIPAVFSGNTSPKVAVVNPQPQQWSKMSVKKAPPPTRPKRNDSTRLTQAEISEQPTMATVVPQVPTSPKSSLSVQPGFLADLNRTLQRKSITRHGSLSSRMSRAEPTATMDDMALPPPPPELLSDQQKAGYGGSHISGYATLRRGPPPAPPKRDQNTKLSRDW

These are yes or no findings as the source states them, for the method shown. Binding seen in cells or lysates may run through a third protein. Binding can be weak; no strength is given.

The target of this test is GST-Lpd (Lamellipodin), not phosphorylated by c-Abl (expressed without c-Abl or with kinase-inactive c-Abl) (UniProt Q70E73). In words: pull-down; GST-Lpd co-transfected with tagged EVL, Mena or VASP and wild-type or kinase-inactive c-Abl in HEK293FT; GST buffer; glutathione beads; western blot with EVL, Mena or VASP antibodies (Figure 3A-C). Background: Immunoblotting shows a protein as a band on a membrane.

Regarding “Mena (tagged, transfected) (from UniProt Q03173-3)”, the binding entry is reported as “binds”.
